Data on 2 substances can be found in PMC11128212.

The chains behind the UniProt entries cited, without tags or fusion partners. Residues count along the entry.
UniProt P35968, residues 20-1356: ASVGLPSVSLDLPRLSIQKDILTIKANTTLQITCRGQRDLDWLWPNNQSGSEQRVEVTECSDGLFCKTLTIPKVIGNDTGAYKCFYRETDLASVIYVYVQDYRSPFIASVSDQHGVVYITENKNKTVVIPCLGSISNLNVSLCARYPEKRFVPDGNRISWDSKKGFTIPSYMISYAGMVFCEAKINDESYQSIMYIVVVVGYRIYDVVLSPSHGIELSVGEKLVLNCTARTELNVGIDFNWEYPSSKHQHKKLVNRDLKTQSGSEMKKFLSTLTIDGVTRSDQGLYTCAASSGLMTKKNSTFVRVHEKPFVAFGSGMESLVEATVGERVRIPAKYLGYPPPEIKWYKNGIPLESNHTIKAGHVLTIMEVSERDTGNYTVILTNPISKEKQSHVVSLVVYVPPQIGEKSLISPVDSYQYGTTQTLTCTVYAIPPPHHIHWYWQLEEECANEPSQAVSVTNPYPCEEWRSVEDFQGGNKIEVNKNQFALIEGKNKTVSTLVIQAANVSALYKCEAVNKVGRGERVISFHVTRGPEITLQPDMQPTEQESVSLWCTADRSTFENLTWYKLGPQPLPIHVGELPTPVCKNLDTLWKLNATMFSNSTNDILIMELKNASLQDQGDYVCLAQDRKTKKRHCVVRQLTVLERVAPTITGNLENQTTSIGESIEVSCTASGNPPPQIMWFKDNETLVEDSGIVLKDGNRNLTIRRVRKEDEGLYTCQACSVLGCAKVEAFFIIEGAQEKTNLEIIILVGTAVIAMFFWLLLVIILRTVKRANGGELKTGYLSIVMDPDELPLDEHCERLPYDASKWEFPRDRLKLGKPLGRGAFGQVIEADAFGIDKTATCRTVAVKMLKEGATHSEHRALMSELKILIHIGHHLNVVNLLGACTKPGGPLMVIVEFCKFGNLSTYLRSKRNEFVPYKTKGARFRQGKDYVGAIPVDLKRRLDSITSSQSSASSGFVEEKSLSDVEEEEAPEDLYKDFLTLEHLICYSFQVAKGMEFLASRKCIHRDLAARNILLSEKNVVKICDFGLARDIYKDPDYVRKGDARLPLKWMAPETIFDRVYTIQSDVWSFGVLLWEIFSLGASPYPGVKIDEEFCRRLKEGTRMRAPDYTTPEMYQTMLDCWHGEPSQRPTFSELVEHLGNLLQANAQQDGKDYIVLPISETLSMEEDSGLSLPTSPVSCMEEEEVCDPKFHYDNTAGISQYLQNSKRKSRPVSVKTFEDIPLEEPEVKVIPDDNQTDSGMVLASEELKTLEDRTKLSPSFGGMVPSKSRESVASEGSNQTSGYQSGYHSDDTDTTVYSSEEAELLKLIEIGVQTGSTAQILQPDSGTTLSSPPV
UniProt Q9NPY3, residues 22-652: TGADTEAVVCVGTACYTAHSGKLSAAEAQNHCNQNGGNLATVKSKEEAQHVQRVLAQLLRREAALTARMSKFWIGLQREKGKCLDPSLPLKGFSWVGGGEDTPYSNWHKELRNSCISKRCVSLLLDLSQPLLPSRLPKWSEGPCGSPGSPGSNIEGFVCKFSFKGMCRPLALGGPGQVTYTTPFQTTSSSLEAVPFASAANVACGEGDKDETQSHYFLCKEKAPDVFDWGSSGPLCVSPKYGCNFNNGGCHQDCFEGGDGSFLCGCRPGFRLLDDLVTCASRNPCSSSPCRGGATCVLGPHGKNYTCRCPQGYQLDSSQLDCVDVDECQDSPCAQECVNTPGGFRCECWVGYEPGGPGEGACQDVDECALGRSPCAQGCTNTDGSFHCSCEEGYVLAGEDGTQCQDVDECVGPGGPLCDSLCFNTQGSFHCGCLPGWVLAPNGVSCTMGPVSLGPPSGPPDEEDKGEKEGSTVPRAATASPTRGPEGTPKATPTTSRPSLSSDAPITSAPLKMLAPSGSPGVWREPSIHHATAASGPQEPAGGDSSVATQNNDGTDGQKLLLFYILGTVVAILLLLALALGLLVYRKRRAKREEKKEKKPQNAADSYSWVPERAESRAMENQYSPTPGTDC
UniProt P23467, residues 23-1997: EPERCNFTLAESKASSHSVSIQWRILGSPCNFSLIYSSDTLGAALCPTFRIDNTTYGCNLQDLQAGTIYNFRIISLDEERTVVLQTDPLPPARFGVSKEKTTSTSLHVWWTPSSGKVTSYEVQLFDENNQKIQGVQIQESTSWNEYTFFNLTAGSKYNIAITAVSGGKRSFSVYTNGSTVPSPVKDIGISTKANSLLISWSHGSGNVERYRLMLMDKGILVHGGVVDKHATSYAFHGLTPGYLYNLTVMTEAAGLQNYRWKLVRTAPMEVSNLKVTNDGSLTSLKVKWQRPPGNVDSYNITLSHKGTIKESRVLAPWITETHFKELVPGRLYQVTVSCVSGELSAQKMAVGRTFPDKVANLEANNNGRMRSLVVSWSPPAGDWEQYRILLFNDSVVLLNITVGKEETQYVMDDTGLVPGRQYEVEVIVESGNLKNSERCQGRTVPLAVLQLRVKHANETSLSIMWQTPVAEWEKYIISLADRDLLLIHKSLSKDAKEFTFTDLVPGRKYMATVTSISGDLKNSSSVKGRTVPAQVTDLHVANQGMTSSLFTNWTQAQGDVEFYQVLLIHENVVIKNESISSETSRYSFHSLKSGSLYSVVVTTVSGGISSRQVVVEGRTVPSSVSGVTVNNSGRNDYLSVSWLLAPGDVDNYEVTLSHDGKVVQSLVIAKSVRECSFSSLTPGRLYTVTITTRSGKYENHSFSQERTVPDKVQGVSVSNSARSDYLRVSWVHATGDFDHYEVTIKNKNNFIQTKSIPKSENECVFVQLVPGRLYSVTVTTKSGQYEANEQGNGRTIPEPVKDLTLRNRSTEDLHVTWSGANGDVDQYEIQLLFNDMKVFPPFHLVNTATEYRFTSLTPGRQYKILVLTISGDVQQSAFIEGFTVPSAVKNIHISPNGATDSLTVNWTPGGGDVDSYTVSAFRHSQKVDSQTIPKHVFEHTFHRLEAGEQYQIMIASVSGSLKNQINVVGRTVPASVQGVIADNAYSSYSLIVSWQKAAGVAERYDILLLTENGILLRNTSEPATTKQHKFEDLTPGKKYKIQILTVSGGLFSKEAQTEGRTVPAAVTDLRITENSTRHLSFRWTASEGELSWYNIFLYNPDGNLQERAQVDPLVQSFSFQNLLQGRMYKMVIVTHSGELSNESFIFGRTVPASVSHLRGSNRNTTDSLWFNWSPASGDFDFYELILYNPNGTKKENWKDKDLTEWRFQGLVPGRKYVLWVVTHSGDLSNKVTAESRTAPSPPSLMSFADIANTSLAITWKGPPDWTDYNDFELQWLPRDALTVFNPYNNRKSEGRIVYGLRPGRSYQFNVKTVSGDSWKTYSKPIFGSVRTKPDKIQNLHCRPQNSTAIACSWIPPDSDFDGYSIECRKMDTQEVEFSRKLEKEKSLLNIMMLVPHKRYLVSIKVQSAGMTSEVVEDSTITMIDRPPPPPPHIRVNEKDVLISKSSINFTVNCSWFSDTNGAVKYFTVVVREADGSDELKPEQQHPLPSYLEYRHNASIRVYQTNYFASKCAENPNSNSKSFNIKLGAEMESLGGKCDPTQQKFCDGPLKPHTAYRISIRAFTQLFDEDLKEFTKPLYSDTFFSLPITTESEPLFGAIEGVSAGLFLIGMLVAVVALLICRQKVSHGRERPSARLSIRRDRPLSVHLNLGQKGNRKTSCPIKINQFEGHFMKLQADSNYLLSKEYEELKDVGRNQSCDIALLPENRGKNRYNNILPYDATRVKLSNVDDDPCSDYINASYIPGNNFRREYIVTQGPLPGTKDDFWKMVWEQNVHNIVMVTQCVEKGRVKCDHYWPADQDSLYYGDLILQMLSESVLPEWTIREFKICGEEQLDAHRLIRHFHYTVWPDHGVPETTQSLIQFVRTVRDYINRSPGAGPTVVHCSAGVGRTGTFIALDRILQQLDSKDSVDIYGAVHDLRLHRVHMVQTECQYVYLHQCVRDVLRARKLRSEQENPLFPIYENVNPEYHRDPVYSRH

These are yes or no findings as the source states them, for the method shown. Binding seen in cells or lysates may run through a third protein. Some results given as binding are weak or reduced against the parent protein; the word gives no strength.

Test [1] addresses vascular endothelial growth factor receptor 2 (human (endogenous in HDBECs)) (UniProt P35968). In words: proximity ligation; in situ PLA (Duolink kit) on HDBEC monolayers with anti-VEGFR2, anti-VE-PTP and anti-CD93 antibodies; with/without VEGF (10 ng/mL, 5 minutes); control, CD93 siRNA or VE-PTP knock-down.
The target of test [2] is CD93 (human (endogenous in HDBECs)) (UniProt Q9NPY3). The experiment in a line: co-IP; CD93 precipitated from total protein extracts of cultured HDBECs with a Pierce co-IP kit; VEGFR2 detected by Western blot; IgG co-IP as control. In general terms: A western blot detects proteins with antibodies after separation by electrophoresis.
The target is the same in test [3]. The experiment in a line: proximity ligation; in situ PLA (Duolink kit) on HDBEC monolayers with anti-VEGFR2, anti-VE-PTP and anti-CD93 antibodies; with/without VEGF (10 ng/mL, 5 minutes); control, CD93 siRNA or VE-PTP knock-down.

In the case of “Vascular endothelial protein tyrosine phosphatase (from UniProt P23467 23-1997) (enzyme)”, the binding result in test [1] is listed as “binds”.
On to “vascular endothelial growth factor receptor 2 (from UniProt P35968 20-1356)”, for which the binding entry in test [2] and in test [3] was “binds” throughout.
